For one molecule, binding results are on record in patent publication US20050042227A1.

Amino acid sequences for entries named in this document (tags omitted). Residues count along the entry.
UniProt Q07954, residues 806-1183: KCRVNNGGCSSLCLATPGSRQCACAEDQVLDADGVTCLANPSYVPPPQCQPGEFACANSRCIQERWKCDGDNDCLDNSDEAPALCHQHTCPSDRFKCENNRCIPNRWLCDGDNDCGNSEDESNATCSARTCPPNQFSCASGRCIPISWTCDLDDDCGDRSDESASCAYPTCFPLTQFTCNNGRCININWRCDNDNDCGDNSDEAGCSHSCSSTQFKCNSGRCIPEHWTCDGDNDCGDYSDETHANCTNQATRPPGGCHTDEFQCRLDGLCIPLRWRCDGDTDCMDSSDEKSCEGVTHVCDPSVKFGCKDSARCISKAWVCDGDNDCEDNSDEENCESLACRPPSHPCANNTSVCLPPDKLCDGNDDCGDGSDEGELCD

For this assay, the target named is sLRP2, the entire second ligand-binding domain of human LRP1 (human) (UniProt Q07954). Briefly: ligand blot, sLRP2 spotted on membrane, detection with anti-RAP antibody.

These are yes or no findings as the source states them, for the method shown. Some results given as binding are weak or reduced against the parent protein; the word gives no strength. Where a sequence is shown, tags or fusion partners need not be part of it.

B1: RAP-IDU fusion (human RAP fused N-terminally to human alpha-L-iduronidase) (protein)
chain: SYSREKNQPKPSPKRESGEEFRMEKLNQLWEKAQRLHLPPVRLAELHADLKIQERDELAWKKLKLDGLDEDGEKEARLIRNLNVILAKYGLDGKKDARQVTSNSLSGTQEDGLDDPRLEKLWHKAKTSGKFSGEELDKLWREFLHHKEKVHEYNVLLETLSRTEEIHENVISPSDLSDIKGSVLHSRHTELKEKLRSINQGLDRLRRVSHQGYSTEAEFEEPRVIDLWDLAQSANLTDKELEAFREELKHFEAKIEKHNHYQKQLEIAHEKLRHAESVGDGERVSRSREKHALLEGRTKELGYTVKKHLQDLSGRISRARAEAETGEAPHLVHVDAARALWPLRRFWRSTGFCPPLPHSQADQYVLSWDQQLNLAYVGAVPHRGIKQVRTHWLLELVTTRGSTGRGLSYNFTHLDGYLDLLRENQLLPGFELMGSASGHFTDFEDKQQVFEWKDLVSSLARRYIGRYGLAHVSKWNFETWNEPDHHDFDNVSMTMQGFLNYYDACSEGLRAASPALRLGGPGDSFHTPPRSPLSWGLLRHCHDGTNFFTGEAGVRLDYISLHRKGARSSISILEQEKVVAQQIRQLFPKFADTPIYNDEADPLVGWSLPQPWRADVTYAAMVVKVIAQHQNLLLANTTSAFPYALLSNDNAFLSYHPHPFAQRTLTARFQVNNTRPPHVQLLRKPVLTAMGLLALLDEEQLWAEVSQAGTVLDSNHTVGVLASAHRPQGPADAWRAAVLIYASDDTRAHPNRSVAVTLRLRGVPPGPGLVYVTRYLDNGLCSPDGEWRRLGRPVFPTAEQFRRMRAAEDPVAAAPRPLPAGGRLTLRPALRLPSLLLVHVCARPEKPPGQVTRLRALPLTQGQLVLVWSDEHVGSKCLWTYEIQFSQDGKAYTPVSRKPSTFNLFVFSPDTGAVSGSYRVRALDYWARPGPFSDPVPYLEVPVPRGPPSPGNP
On to B1, for which the binding entry is listed as “binds”.
